Values joined by “and” are separate entries in the source; they are usually repeats but may differ in a detail not shown here. Equal values may be shown once. The list shows a part of the results. These are further read-outs of the screen, such as a control signal, another cell line or another target. No call is given for them. Most of these compounds were active or inconclusive in the main read-out, so they are no random draw. Potencies come from curve fits of mixed quality, noted in brackets.
Assay: qHTS Assay for Modulators of Lamin A Splicing
Conditions: HeLa LMNA splicing GFP/RFP minigene ratio, 48 h
Outline: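 S3 HeLa cells stably expressing lamin A-EGFP splicing minigene plus DsRed2, 600 cells/well, 48 h compound exposure at 37C. Laser-scanning cytometry; analysed as GFP (500-530 nm)/RFP (575-640 nm) total intensity ratio; 0.5% DMSO vehicle.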

[1] = measured here: RFP viability control channel
[2] = measured here: GFP splicing reporter channel

| Compound | AC50 [1] | AC50 [2] |
| --- | --- | --- |
| Cc1ccc(S(=O)(=O)N2CCCCC2C(=O)N2CCN(c3ccccc3F)CC2)cc1 (configuration not stated) | 15.8 µM [rising, single point] |  |
| O=C(CSc1nnc(Cc2cccs2)n1Cc1ccco1)Nc1cc(Cl)cc(Cl)c1 | 11.2 µM [rising, partial curve] |  |
| Cn1c(=O)c2ncn(CC(=O)O)c2n(C)c1=O | 8.91 µM [falling, partial curve] |  |
| COc1ccc(CCn2ccc(O)c(Cc3ccc(Cl)cc3)c2=O)cc1OC | 0.0224 µM [falling, full curve, poor fit] |  |
| CC(NS(=O)(=O)c1ccccc1)C(c1cccs1)N1CCOCC1 (configuration not stated) | 3.16 µM [rising, single point] |  |
| NC(=O)C1CCN(c2ccc(S(=O)(=O)N3CCC(Cc4ccccc4)CC3)cn2)CC1 | 0.01 µM [falling, full curve, poor fit] | 7.94 µM [falling, partial curve, poor fit] |
| O=C1c2ccccc2-c2onc3ccc(Oc4ccccc4)c1c23 | 35.5 µM [falling, single point] | 35.5 µM [falling, single point] |
| CN(C(=O)c1ccccc1)c1nc2ccccc2s1 | 25.1 µM [rising, single point] | 12.6 µM [rising, single point] |
| CC1(C)Cc2ccccc2-c2c1c(=O)n(Cc1ccccc1)c1nnnn21 | 35.5 µM [rising, single point] | 35.5 µM [rising, single point] |
| Fc1ccc(N2CCN(Cc3cnc(Oc4ccc(Br)cc4)s3)CC2)cc1 | 20 µM [rising, partial curve] | 5.01 µM [rising, partial curve] |
| COc1cc(NC(=O)COc2cccc(OC)c2)cc(OC)c1 |  | 8.91 µM [rising, partial curve] |
| COc1nc(NCCC2=CCCCC2)nc(OC)n1 |  | 11.2 µM [rising, partial curve] |
| O=C(c1ccc2c(c1)N(Cc1cccc(Cl)c1)C(=O)c1ccccc1S2(=O)=O)N1CCc2ccccc21 |  | 0.282 µM [rising, full curve, poor fit] |
| Cc1cccc(-n2nc(C)c3c2NC2=C(C(=O)CCC2)C3c2ccccn2)c1 (configuration not stated) |  | 0.00794 µM [rising, full curve, poor fit] |
| O=C(NCc1cccnc1)c1ccc(-c2cc3ccccc3oc2=O)cc1 |  | 12.6 µM [rising, partial curve] |
| O=C(NN=C1CCN(Cc2ccccc2)CC1)c1cc2ccccc2cc1O |  | 31.6 µM [rising, single point] |
| Oc1c(Cl)cc(Cl)c2cccnc12 | 6.31 µM [falling, partial curve, poor fit] and 3.98 µM [falling, full curve, poor fit] | 0.355 µM [falling, full curve] |
| CC(=O)c1sc(Nc2nc3ccc(F)cc3s2)nc1C | 14.1 µM [rising, single point] | 10 µM [rising, partial curve] |

One compound at a time (already shown).
NC(=O)C1CCN(c2ccc(S(=O)(=O)N3CCC(Cc4ccccc4)CC3)cn2)CC1 is listed with AC50 [1]: 0.01 µM [falling, full curve, poor fit]; AC50 [2]: 7.94 µM [falling, partial curve, poor fit]
Oc1c(Cl)cc(Cl)c2cccnc12 is listed with AC50 [1]: 6.31 µM [falling, partial curve, poor fit] and 3.98 µM [falling, full curve, poor fit]; AC50 [2]: 0.355 µM [falling, full curve]

Following part.

| Compound | AC50 [1] | AC50 [2] |
| --- | --- | --- |
| O=C(NCc1ccccc1)C(=O)NCC1COc2ccccc2O1 (configuration not stated) | 10 µM [rising, partial curve] |  |
| Cc1ccc2c(c1)N(C(=O)Nc1ccc(Br)cc1F)CCO2 | 0.316 µM [falling, partial curve] | 3.55 µM [falling, partial curve] |
| CC(NC(=O)/C(C#N)=C/c1ccc(Cl)c([N+](=O)[O-])c1)c1ccccc1 (configuration not stated) | 14.1 µM [falling, partial curve] | 11.2 µM [falling, partial curve] |
| CCOC(=O)N1CCC(N(C(=O)Nc2ccc(Cl)c(Cl)c2)C(C)CC)CC1 (configuration not stated) | 31.6 µM [rising, single point] |  |
| COc1ccccc1N1CCN(CCCNc2c(C)c(=O)n(C)c(=O)n2C)CC1 |  | 0.0224 µM [falling, full curve, poor fit] |
| CC(C)(C)OC(=O)C(Cc1ccc(OC(C)(C)C)cc1)NC(=O)CNC(=O)OCc1ccccc1 (configuration not stated) | 25.1 µM [rising, partial curve] | 17.8 µM [rising, single point] |
| COc1ccc(CCNC(=O)c2cnn(-c3cccc(C)c3)c2C2CCNCC2)cc1OC | 0.00501 µM [falling, full curve, poor fit] |  |
| COc1ccc(CNc2oc(COc3ccc(Cl)cc3)nc2C#N)cc1 | 22.4 µM [rising, single point] | 11.2 µM [rising, partial curve] |
| O=C(c1ccccc1)N1CCC(c2nc3ccccc3o2)CC1 | 3.55 µM [falling, partial curve] |  |
| Cc1ccc(-c2nc(CSc3nc4ccccc4c(=O)n3CCO)cs2)cc1 |  | 35.5 µM [rising, single point] |
| COc1ccc2c(c1)CCN(C(=O)CCl)C2C1C(=O)CCCC1=O (configuration not stated) | 11.2 µM [falling, single point] |  |
| O=C(N/N=C/c1cc(Br)c(O)c(Br)c1)c1cccc(C(F)(F)F)c1 | 14.1 µM [rising, partial curve] |  |
| CC(=O)c1ccc(NC(=O)CSc2nnc(-c3ccncc3)n2-c2ccccc2)cc1 |  | 0.0316 µM [falling, full curve, poor fit] |
| CCOC(=O)c1nn(-c2ccccc2)c(C#N)c1NC(=O)c1nn(CC)cc1Br |  | 0.794 µM [rising, partial curve, poor fit] |
| COc1ccc(OC)c(CN2CCC(C(=O)N(C)CCc3ccc(OC)c(OC)c3)CC2)c1 | 28.2 µM [falling, partial curve] |  |
| N#Cc1cnn2ccc(-c3cc(N4CCOCC4)ccc3[N+](=O)[O-])nc12 |  | 0.501 µM [rising, partial curve, poor fit] |
| N#Cc1nc(-c2ccc(OCc3ccccc3Cl)cc2)oc1NCCCn1ccnc1 | 35.5 µM [falling, single point] |  |
| Cc1c(CCOC(=O)C23CC4CC(CC(C)(C4)C2)C3)sc[n+]1CC(=O)c1ccccc1 | 35.5 µM [rising, single point] |  |
